Assay results as given in paper PMC4224252.
No constants are given. Whether binding was seen depends on the method and setting. Binding seen in cells or lysates may run through a third protein. Some entries that bind do so weakly or less than the wild type.

Amino acid sequences for entries named in this document (tags omitted). Residues count along the entry.
UniProt P49134, residues 21-799: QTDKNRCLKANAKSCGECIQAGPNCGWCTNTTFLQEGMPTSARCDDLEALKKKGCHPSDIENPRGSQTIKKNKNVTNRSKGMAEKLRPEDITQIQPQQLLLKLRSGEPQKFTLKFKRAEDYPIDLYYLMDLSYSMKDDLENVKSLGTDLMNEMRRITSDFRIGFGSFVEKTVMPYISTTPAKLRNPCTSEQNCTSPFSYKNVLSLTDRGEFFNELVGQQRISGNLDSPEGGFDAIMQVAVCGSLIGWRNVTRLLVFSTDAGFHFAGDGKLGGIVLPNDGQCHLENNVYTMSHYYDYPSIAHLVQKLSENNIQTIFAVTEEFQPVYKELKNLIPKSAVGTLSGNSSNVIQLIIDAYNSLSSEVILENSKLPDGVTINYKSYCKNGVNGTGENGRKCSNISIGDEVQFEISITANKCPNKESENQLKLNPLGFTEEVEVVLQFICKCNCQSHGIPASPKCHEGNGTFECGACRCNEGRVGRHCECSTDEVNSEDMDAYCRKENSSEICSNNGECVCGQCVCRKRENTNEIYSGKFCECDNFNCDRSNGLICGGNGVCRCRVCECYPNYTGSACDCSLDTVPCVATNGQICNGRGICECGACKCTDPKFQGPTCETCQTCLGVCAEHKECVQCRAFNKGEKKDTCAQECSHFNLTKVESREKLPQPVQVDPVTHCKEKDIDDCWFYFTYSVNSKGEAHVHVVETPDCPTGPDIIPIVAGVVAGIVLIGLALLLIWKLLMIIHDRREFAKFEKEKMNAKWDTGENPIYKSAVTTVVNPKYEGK
UniProt O35346: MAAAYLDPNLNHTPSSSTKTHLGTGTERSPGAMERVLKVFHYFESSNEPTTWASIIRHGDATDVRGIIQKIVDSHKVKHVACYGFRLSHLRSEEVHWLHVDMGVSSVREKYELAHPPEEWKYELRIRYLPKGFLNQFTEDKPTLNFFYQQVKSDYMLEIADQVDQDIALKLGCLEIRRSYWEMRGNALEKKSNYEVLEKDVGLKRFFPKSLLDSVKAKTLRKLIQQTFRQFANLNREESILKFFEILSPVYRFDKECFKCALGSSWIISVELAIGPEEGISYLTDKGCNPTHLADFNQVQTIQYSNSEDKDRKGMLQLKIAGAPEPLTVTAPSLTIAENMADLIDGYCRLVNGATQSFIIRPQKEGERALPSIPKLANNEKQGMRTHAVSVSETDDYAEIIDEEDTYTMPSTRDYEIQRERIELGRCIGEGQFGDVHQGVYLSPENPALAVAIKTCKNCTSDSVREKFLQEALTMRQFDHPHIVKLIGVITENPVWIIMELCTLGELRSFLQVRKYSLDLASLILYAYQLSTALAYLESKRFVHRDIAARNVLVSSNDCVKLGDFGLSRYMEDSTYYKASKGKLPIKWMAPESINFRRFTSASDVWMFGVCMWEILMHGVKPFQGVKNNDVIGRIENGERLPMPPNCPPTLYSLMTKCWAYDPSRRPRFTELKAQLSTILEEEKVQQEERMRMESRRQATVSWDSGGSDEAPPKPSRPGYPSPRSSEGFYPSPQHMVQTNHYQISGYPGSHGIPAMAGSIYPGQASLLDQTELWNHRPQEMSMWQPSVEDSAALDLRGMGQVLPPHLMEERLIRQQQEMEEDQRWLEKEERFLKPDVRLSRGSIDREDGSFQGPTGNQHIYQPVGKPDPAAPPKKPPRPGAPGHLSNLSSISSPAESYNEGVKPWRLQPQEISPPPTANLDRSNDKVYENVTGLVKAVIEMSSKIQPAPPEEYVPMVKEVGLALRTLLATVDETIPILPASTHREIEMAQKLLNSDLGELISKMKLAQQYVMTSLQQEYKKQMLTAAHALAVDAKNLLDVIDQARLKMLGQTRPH

Legend:
[1] = target: T1, Integrin β3 subunit (rat (endogenous in resistance arteries)) (UniProt Q8R2H2); assay: co-IP; 5 μg integrin antibody (β1 AB1952, β3 AB1932 or α5 aba5b) on 250 μg total RIPA extract of resistance arteries of normotensive SD rats; agarose IgG/protein A; Western blot with FAK Y397 or Src Y418 antibody
T1 sequence: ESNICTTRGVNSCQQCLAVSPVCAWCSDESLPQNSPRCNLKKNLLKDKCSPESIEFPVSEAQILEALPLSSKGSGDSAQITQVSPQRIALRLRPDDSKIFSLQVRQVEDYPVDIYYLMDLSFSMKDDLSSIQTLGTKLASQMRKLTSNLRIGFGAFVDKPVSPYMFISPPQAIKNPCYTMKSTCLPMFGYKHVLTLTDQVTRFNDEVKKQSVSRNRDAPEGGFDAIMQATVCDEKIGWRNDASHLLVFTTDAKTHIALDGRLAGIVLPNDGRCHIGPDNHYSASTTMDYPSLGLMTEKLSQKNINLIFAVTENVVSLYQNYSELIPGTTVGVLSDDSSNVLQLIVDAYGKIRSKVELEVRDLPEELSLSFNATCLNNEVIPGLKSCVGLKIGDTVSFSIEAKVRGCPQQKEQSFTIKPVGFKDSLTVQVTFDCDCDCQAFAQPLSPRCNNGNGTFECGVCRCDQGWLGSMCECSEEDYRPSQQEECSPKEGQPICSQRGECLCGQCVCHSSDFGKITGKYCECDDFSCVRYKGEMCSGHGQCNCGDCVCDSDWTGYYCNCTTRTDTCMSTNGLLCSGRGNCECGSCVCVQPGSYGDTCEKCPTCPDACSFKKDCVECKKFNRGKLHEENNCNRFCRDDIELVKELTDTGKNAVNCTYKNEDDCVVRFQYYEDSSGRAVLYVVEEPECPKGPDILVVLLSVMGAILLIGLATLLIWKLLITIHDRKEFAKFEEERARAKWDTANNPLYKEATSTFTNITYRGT

[2] = target: Integrin β1 subunit (general subpopulation of β1 integrins) (rat (endogenous in resistance arteries)) (UniProt P49134); assay: co-IP; 5 μg integrin antibody (β1 AB1952, β3 AB1932 or α5 aba5b) on 250 μg total RIPA extract of resistance arteries of hypertensive TGR(mRen2)27 rats; agarose IgG/protein A; Western blot with FAK Y397 or Src Y418 antibody
[3] = target: T1, Integrin β3 subunit (rat (endogenous in resistance arteries)); assay: as above
[4] = target: Integrin β1 subunit (general subpopulation of β1 integrins) (rat (endogenous in resistance arteries)) (UniProt P49134); assay: co-IP; 5 μg integrin antibody (β1 AB1952, β3 AB1932 or α5 aba5b) on 250 μg total RIPA extract of resistance arteries of 5-week-old cRGDfV-treated TGR(mRen2)27 rats (10 mg/kg twice daily for 5 days); agarose IgG/protein A; Western blot with FAK Y397 or Src Y418 antibody
[5] = target: Integrin β1 subunit (general subpopulation of β1 integrins) (rat (endogenous in resistance arteries)) (UniProt P49134); assay: condition: only in extracts of arteries of normotensive SD rats; co-IP; 5 μg integrin antibody (β1 AB1952, β3 AB1932 or α5 aba5b) on 250 μg total RIPA extract of resistance arteries of normotensive SD rats; agarose IgG/protein A; Western blot with FAK Y397 or Src Y418 antibody
[6] = target: T1, Integrin β3 subunit (rat (endogenous in resistance arteries)); assay: condition: only in extracts of arteries of cRGDfV-treated TGR(mRen2)27 rats; co-IP; 5 μg integrin antibody (β1 AB1952, β3 AB1932 or α5 aba5b) on 250 μg total RIPA extract of resistance arteries of 5-week-old cRGDfV-treated TGR(mRen2)27 rats (10 mg/kg twice daily for 5 days); agarose IgG/protein A; Western blot with FAK Y397 or Src Y418 antibody

Measured: binding

Phosphorylated (p)FAK Y397 (focal adhesion kinase phosphorylated at tyrosine 397) (from UniProt O35346 1-1055) (enzyme)
no binding: [5] | [6]
binds: all other assays above
